Reference: PubChem BioAssay AID2685 (National Center for Advancing Translational Sciences (NCATS), 2010)
This is one part of the list. These are further read-outs of the screen, such as a control signal, another cell line or another target. No call is given for them. Compounds called inactive in the main read-out are mostly missing here. Potencies come from curve fits of mixed quality, noted in brackets.

Assay: qHTS Assay for Lipid Storage Modulators in Drosophila S3 Cells;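 as to cell number change: cells counted by Cell Tracker Red CMTPX staining in the red channel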
Settings: BODIPY lipid droplet fluorescence, 18-24 h; for cell number change: measured here: cell count max response, cells fed with added oleic acid
In short: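 Laser-scanning cytometry quantifies lipid droplet accumulation (500–530 nm total intensity; droplet/cell object ratio) in oleic acid-fed (400 uM added) Drosophila S3 cells treated with a concentration series. 20 uM Triacsin C defined 100% inhibition.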

[1] = measured here: cell number channel AC50, cells fed with added oleic acid
[2] = measured here: lipid fluorescence (Fed channel) AC50, cells fed with added oleic acid

SMILES	cell number change [%]	AC50 [1]	AC50 [2]
CCn1c(SCC(=O)N2CCCCCC2)nc2c([nH]c3ccccc32)c1=O	11.3	0.13 µM [rising, full curve, poor fit]	
O=C(Nc1cccn2ncnc12)c1cccc(C(F)(F)F)c1	-15.8		
CC(=O)N(C)/C=C1\Sc2ccccc2C1=O	-1.53		6.51 µM [falling, single point]
COc1ccc(Nc2nc(N)c([N+](=O)[O-])c(N3CCCC3)n2)cc1	11.7	0.651 µM [rising, single point]	
Cc1csc(=O)n1CC(=O)OCC(=O)N(CC(C)C)c1c(N)n(Cc2ccccc2)c(=O)[nH]c1=O		0.517 µM [falling, full curve, poor fit]	0.517 µM [falling, full curve]
O=C(O)C1C2C=CC(C2)C1C(=O)Nc1ccc(C(=O)N2CCCCC2)cc1 (stereo not given)	21.6		18.4 µM [rising, single point]
O=C(NCc1ccc2c(c1)OCO2)C(=O)NCC1OCCN1S(=O)(=O)c1ccc(Br)cc1 (stereo not given)	-7.62		5.01 µM [rising, partial curve]
CCC(=O)Nc1ccc(/C(C)=N/NC(=O)c2c(Br)c(C)nn2C)cc1	1.98	6.51 µM [rising, single point]	18.4 µM [rising, partial curve]
CC(=O)Nc1ccc(C(=O)OCC(=O)NCc2ccccc2)cc1	-14.2		0.794 µM [falling, full curve, poor fit]
COC(=O)C1=C(C)NC(C)=C(C(=O)OC)C1C(=O)OC1CCCCC1=O (stereo not given)	19.9		29.1 µM [falling, single point]
Cc1cc(-c2csc(NC(=O)c3ccc(C#N)cc3)n2)c(C)n1Cc1ccco1	14.3		7.31 µM [rising, partial curve]
CCN1CCN(CC(=O)Nc2cc(C)on2)CC1	-45.7	0.731 µM [falling, full curve]	0.517 µM [falling, full curve]
COc1ccc(C(=O)Nc2ccc(NC(=O)c3ccco3)c(Cl)c2)cc1OC	-14.3		4.11 µM [rising, single point]
Cc1cccc(C)c1NC(=O)COC(=O)c1ccc2c(c1)OCO2	9.04	6.51 µM [rising, single point]	6.51 µM [rising, partial curve, poor fit]
O=C(CCNC(=O)c1ccco1)Nc1cccc(C(F)(F)F)c1	42.1	29.1 µM [rising, single point]	
CCc1nc2sccc2c(=O)[nH]1	-14	0.184 µM [falling, full curve]	0.146 µM [falling, partial curve, poor fit]

Quoted from the listing:
Value for `CCc1nc2sccc2c(=O)[nH]1` under AC50 [2]: 0.146 µM [falling, partial curve, poor fit]
Value for `Cc1cccc(C)c1NC(=O)COC(=O)c1ccc2c(c1)OCO2` under AC50 [1]: 6.51 µM [rising, single point]
